# Reference: PubChem BioAssay AID1688 (National Center for Advancing Translational Sciences (NCATS), 2009)
# The whole screen tested about 220,000 compounds, of which about 2,400 (1.1%) were called active. The inconclusive results got no clear call from the source; some entries with a clear call stand among them for comparison. Calls follow the shape of the dose curve; as a rule, active = well fitted inhibition curve with a large enough effect; inconclusive = small, poorly fitted or top-dose-only effect, or effect the other way; inactive = no such curve, though single readings can be large or run the other way. Potencies beside an inconclusive call are fits to weak or partial responses and may not hold up.
# Assay: qHTS Multiplex Assay to Identify Dual Action Probes in a Cell Model of Huntington: Aggregate Formation (GFP); also: nearly all actives have a fitted effect of over 60% in size
# Conditions: PC12 HttQ103-GFP aggregates, Acumen cytometry, 40 h; activity change, negative = inhibition: at 46.1 µM (top of the series) unless noted
# Method in brief: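 Compounds (qHTS titration) were added to PC12 cells expressing an ecdysone-driven HTT exon 1 Q103–GFP fusion after induction with 100 nM tebufenozide. Aggregate formation was measured as GFP objects in cell lysates.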
# % is scaled to controls: 0 for no effect and ±100 for the full control effect; potency is read from the fitted curve at half-maximal effect.
Compound,Potency,"activity change, negative = inhibition"
CCCCCCCCNC(=O)c1cccnc1SCC(=O)Nc1ccccc1OC,"inconclusive: 25.1 µM [activator, partial curve, poor fit]",–
CCOC(=O)c1c(C(C)(C)C)oc2ccc(O)cc12,"inconclusive: 28.2 µM [inhibitor, single point]",–
COc1ccc(-c2cc3c(nn2)-c2ccccc2C3=O)cc1,inactive,–
CCOc1ccc(CCNC(=O)C2CCCN(S(=O)(=O)c3c(C)n[nH]c3C)C2)cc1OCC (configuration not stated),"inconclusive: 35.5 µM [inhibitor, single point]",–
O=c1[nH]cnc2nn(-c3ccccc3)nc12,inactive,–
Brc1ccccc1-c1nnc2sc(Cc3ccccc3)nn12,"inconclusive: 0.631 µM [inhibitor, full curve]",–
O=C(O)c1ccccc1-c1c2ccc(=O)cc-2oc2cc(O)ccc12,active: 0.0316 µM,–
Cc1cc(C)n2c(Br)c(CSc3nc4ccccc4s3)nc2n1,inactive,–
Oc1ccccc1N=Cc1ccc[nH]1,"inconclusive: 3.55 µM [activator, single point]",–
COc1cc(/C=C(/C#N)c2ccccc2)ccc1Oc1ccc([N+](=O)[O-])cn1,"inconclusive: 3.98 µM [inhibitor, full curve]",–
Nc1c(C(O)(C(F)(F)F)C(F)(F)F)cc(C(O)(C(F)(F)F)C(F)(F)F)c2ccccc12,"inconclusive: 35.5 µM [inhibitor, single point]",–
CC(C)[C@H](NC(=O)OC(C)(C)C)c1nnc(S(=O)(=O)Cc2c(F)cccc2Cl)o1,active: 10 µM,–
CC(=O)OCCNc1cc(Sc2nc3ccccc3[nH]2)c2nonc2c1[N+](=O)[O-],"inconclusive: 2.82 µM [inhibitor, partial curve]",–
O=C(NNC(=O)c1ccccc1[N+](=O)[O-])c1ccccc1[N+](=O)[O-],inactive,–
COc1ccc(C(=O)NC(=S)NNC(=O)c2c(-c3ccccc3)noc2C)cc1,"inconclusive: 8.91 µM [inhibitor, partial curve]",–
O=c1[nH]ncn1-c1ccccc1C(F)(F)F,inactive,–
O=C(c1ccco1)N1CCN(c2ncnc3c2[nH]c2ccccc23)CC1,"inconclusive: 12.6 µM [inhibitor, single point]",–
O=[N+]([O-])c1ccccc1/C=C/C=N/n1c(-c2ccco2)n[nH]c1=S,"inconclusive: 1.12 µM [activator, partial curve]",–
COc1ccccc1C(OC(=O)c1cccs1)C(=O)NCc1ccco1 (configuration not stated),inactive,–
Nc1nc(SCC(=O)c2cc3ccccc3o2)n[nH]1,–,inactive: 29.9% [at 9.22 µM]
O=C(Cn1cnc2ccccc21)Nc1ccc(SC(F)F)cc1,"inconclusive: 10 µM [inhibitor, partial curve]",–
CCCc1nc2oc3cc(OC)ccc3c(=O)c2c(=O)n1Cc1ccco1,inactive,–
CCCCCC(=O)Nc1cccc(C2=NOC3(C2)C[C@@H](C(N)=O)N(C(=O)c2cc([N+](=O)[O-])cc([N+](=O)[O-])c2C)C3)c1 (some centres not stated),"inconclusive: 2.82 µM [activator, partial curve]",–

# Molecules listed so far that have an NH in an aromatic ring:
Compound,Potency,"activity change, negative = inhibition"
CCOc1ccc(CCNC(=O)C2CCCN(S(=O)(=O)c3c(C)n[nH]c3C)C2)cc1OCC (configuration not stated),"inconclusive: 35.5 µM [inhibitor, single point]",–
O=c1[nH]cnc2nn(-c3ccccc3)nc12,inactive,–
Oc1ccccc1N=Cc1ccc[nH]1,"inconclusive: 3.55 µM [activator, single point]",–
CC(=O)OCCNc1cc(Sc2nc3ccccc3[nH]2)c2nonc2c1[N+](=O)[O-],"inconclusive: 2.82 µM [inhibitor, partial curve]",–
O=c1[nH]ncn1-c1ccccc1C(F)(F)F,inactive,–
O=C(c1ccco1)N1CCN(c2ncnc3c2[nH]c2ccccc23)CC1,"inconclusive: 12.6 µM [inhibitor, single point]",–
O=[N+]([O-])c1ccccc1/C=C/C=N/n1c(-c2ccco2)n[nH]c1=S,"inconclusive: 1.12 µM [activator, partial curve]",–
Nc1nc(SCC(=O)c2cc3ccccc3o2)n[nH]1,–,inactive: 29.9% [at 9.22 µM]

# Remaining list, next part:

Compound,Potency,"activity change, negative = inhibition"
CC(C)CCNC(=O)C(c1ccc(O)cc1)N(Cc1cccs1)C(=O)C1COc2ccccc2O1 (configuration not stated),"inconclusive: 35.5 µM [inhibitor, single point]",–
CCn1c(SCC(=O)c2ccccc2)nc2c(c1=O)SC(C)C2 (configuration not stated),"inconclusive: 35.5 µM [inhibitor, partial curve]",–
CC(C)[C@@H]1CC[C@@H](C)C[C@H]1OC(=O)C[n+]1cc(-c2ccc(Cl)cc2)n2c1CCCCC2,–,inactive: -33.5% [at 9.22 µM]
Cc1ccc(S(=O)(=O)C2(C(=O)N3CCN(c4cc(C)ccc4C)CC3)CC2)cc1,"inconclusive: 35.5 µM [inhibitor, single point]",–
COc1ccc(/C=C/C(=O)OCc2cc(=O)n3c(n2)sc2ccccc23)cc1,"inconclusive: 7.94 µM [inhibitor, partial curve]",–
Cc1oc2c(c1C(=O)Nc1cccc3ccccc13)CCCC2,inactive,–
O=C(Nc1nc2n(n1)C(c1ccc(Cl)cc1)CC(c1ccc(Cl)cc1)N2)c1ccco1 (configuration not stated),"inconclusive: 28.2 µM [inhibitor, single point]",–
CC(=O)Nc1ccc(-c2csc(NC(=O)C3CCN(S(=O)(=O)c4cccs4)CC3)n2)cc1,"inconclusive: 5.62 µM [inhibitor, partial curve, poor fit]",–
Nc1ccc2nc(-c3ccccc3)[nH]c2c1,"inconclusive: 1.58 µM [activator, full curve, poor fit]",–
CC1CCC(NC(=O)CC(C)(C)Cc2nc3ccccc3c(=O)[nH]2)CC1 (configuration not stated),"inconclusive: 35.5 µM [inhibitor, single point]",–
Cc1onc(-c2c(Cl)cccc2Cl)c1NC(=O)N(C)N,–,inactive: -7.24% [at 9.22 µM]
COc1ccc(CN=C2NC(=O)CC(C(=O)Nc3cc(C)cc(C)c3)S2)cc1 (configuration not stated),"inconclusive: 35.5 µM [activator, single point]",–
CSc1c(SCc2ccccc2)cnn(Cc2ccccc2)c1=O,"inconclusive: 22.4 µM [inhibitor, single point]",–
Cc1ccc(C(C(=O)NCc2ccco2)N(Cc2ccco2)C(=O)CNC(=O)c2ccco2)cc1 (configuration not stated),"inconclusive: 35.5 µM [inhibitor, single point]",–
CN(C)c1ccc(C2/C(=C(/O)c3ccccc3)C(=O)C(=O)N2CCCC(=O)O)cc1 (configuration not stated),–,inactive: -27.8% [at 9.22 µM]
COCC(=O)OCC(=O)Nc1cc(C)c(C)cc1[N+](=O)[O-],"inconclusive: 35.5 µM [inhibitor, single point]",–
CCN1/C(=C/c2ccc3cc(C)ccc3[n+]2CC)Sc2ccccc21,active: 0.355 µM,–
CC(C)Oc1ccccc1OCCCCn1cnc2ccccc2c1=O,"inconclusive: 12.6 µM [inhibitor, single point]",–
Cc1nc(NC(N)=S)sc1C(=O)Nc1ccccc1,"inconclusive: 2.82 µM [inhibitor, single point]",–
O=c1[nH]c2ccccc2nc1Cc1ccccc1,"inconclusive: 28.2 µM [inhibitor, partial curve]",–
CCC(CO)Nc1ccc(-c2nn(C)c(=O)c3ccccc23)cc1[N+](=O)[O-] (configuration not stated),–,inactive: 2.11% [at 9.22 µM]
CCCCCC(=O)N1CCN(CCN=CC2=C(O)CC(c3ccc(OC)cc3)CC2=O)CC1 (configuration not stated),inactive,–
c1ccc2c(c1)[nH]c1c(NCC3CCCO3)ncnc12 (configuration not stated),"inconclusive: 35.5 µM [inhibitor, single point]",–

Compound,Potency,"activity change, negative = inhibition"
COCC(=O)Nc1ccccc1-c1ccccc1,inactive,–
COc1ccc(NC(=O)c2[nH]c(C)c(C(C)=O)c2C)cc1S(=O)(=O)N1CCOCC1,"inconclusive: 11.2 µM [activator, partial curve, poor fit]",–
COc1ccc(/C=c2/sc3n(c2=O)C(c2ccccc2OC)C2=C(N=3)c3ccccc3CC2)cc1O (configuration not stated),"inconclusive: 3.98 µM [inhibitor, partial curve]",–
CN(C)c1ccnc2sc(C(N)=O)c(N)c12,active: 1.58 µM,–
Nc1ccc2ncccc2c1N,"inconclusive: 7.08 µM [activator, partial curve]",–
COC(=O)[C@@H]1C[C@@]2(O)[C@H](O)[C@H](O)[C@H](O)C[C@H]2N1Cc1cccc2ccccc12,"inconclusive: 5.62 µM [activator, partial curve, poor fit]",–
COc1ccc(NC(=O)c2cc(S(=O)(=O)N3CCCCC3)ccc2N2CCCCC2)cn1,inactive,–
C=CCOC(=O)C1=C(C)NC(SCC(=O)Nc2nccs2)=C(C#N)C1c1cccs1 (configuration not stated),active: 12.6 µM,–
O=C(Nc1ccc(N2CCOCC2)c(Cl)c1)c1cccc(F)c1,"inconclusive: 22.4 µM [inhibitor, single point]",–
Cc1nc2ncccn2c1-c1csc(Nc2ccccc2)n1,"inconclusive: 7.94 µM [inhibitor, partial curve]",–
CCc1ccc(OCC2c3cc(OC)c(OC)cc3CCN2C(=S)NCCOC)cc1 (configuration not stated),"inconclusive: 15.8 µM [activator, single point]",–
COc1cc2c(cc1OC)C1(Nc3c-2c(-c2ccccc2)nn3-c2ccccc2)C(=O)Nc2ccccc21 (configuration not stated),–,inactive: 4.29% [at 9.22 µM]
COc1ccc(NC(=O)CNS(=O)(=O)c2cccc3nonc23)c(OC)c1,"inconclusive: 0.562 µM [inhibitor, partial curve, poor fit]",–
CC(O)CN(C)CC/C=C1/c2ccccc2CSc2ccccc21 (configuration not stated),active: 8.91 µM,–
Cc1cc(/C=N/n2c(COc3ccccc3)nc3ccccc3c2=O)c(O)c([N+](=O)[O-])c1,active: 10 µM,–
Brc1cccc(CSc2nnc(-c3ccncc3)o2)c1,"inconclusive: 22.4 µM [inhibitor, single point]",–
Cc1cc(C(=O)COC(=O)c2ccc3c(c2)NC(=O)CS3)c(C)n1CC1CCCO1 (configuration not stated),"inconclusive: 1 µM [activator, full curve, poor fit]",–
Cc1ncsc1CCSc1nc2ccccc2c(=O)n1C,"inconclusive: 35.5 µM [inhibitor, single point]",–
Cc1cc(N2CCCCC2)nc(NCc2ccccc2)n1,"inconclusive: 7.94 µM [inhibitor, partial curve]",–
COc1ccc(-c2nc3ccccc3c(=O)n2NC(=O)c2cccnc2Cl)cc1OC,"inconclusive: 1 µM [activator, single point]",–
CC1=CC(C)(C)Nc2ccc(OC(=O)c3cccnc3)cc21,"inconclusive: 3.98 µM [activator, single point]",–

# As a working copy, two of the compounds above:
Compound,Potency,"activity change, negative = inhibition"
COc1cc2c(cc1OC)C1(Nc3c-2c(-c2ccccc2)nn3-c2ccccc2)C(=O)Nc2ccccc21 (configuration not stated),–,inactive: 4.29% [at 9.22 µM]
COc1ccc(NC(=O)CNS(=O)(=O)c2cccc3nonc23)c(OC)c1,"inconclusive: 0.562 µM [inhibitor, partial curve, poor fit]",–
